From PubChem BioAssay AID2417 (National Center for Advancing Translational Sciences (NCATS), 2010)
Several values for one entry are separate records, joined by “and”; a condition that tells them apart may be missing. Identical values can stand only once. About 4,300 (3.1%) of roughly 140,000 compounds were called active. The inconclusive results got no clear call from the source; some entries with a clear call stand among them for comparison.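 How the source made its calls: active means readout at or below -70, meaning at least 70% loss of cells showing the perinucleolar compartment, a nuclear body marking cancer cells; inconclusive means readout between -30 and a set limit; inactive means the rest.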

Assay: High Content Assay for Compounds that inhibit the Assembly of the Perinucleolar Compartment;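 further: plate controls were DMSO wells for no effect and camptothecin positive control wells for full effect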
Conditions: PC3M PTB-GFP, PNC prevalence imaging, 16 h; at 10 µM; stronger effect = lower value
In short: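 Read-out is percentage of cells bearing a perinucleolar compartment, from automated 20x imaging of fixed, Hoechst-stained PC3M PTB-GFP cells. Cells were seeded 4 h, then exposed 16 h to compound (23 nl of library stock) in duplicate plates.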
In the case of Cc1ccccc1-n1c(=O)c2ccccc2n2c(=O)[nH]nc12, the activity change (PNC), negative = inhibition is reported as inconclusive: -40.2%. With Cc1nc(CCNC(=O)Cc2ccc(Cl)cc2)cs1 the activity change (PNC), negative = inhibition was active: -89.9%. With c1nnc(NC2=NCCC2)s1 the activity change (PNC), negative = inhibition was active: -111%. For Cc1cccc(N2CCN(C(=O)Cc3cn(C)c4ccccc34)CC2)c1C, the activity change (PNC), negative = inhibition was inconclusive: -76.4%. In the case of CCN(CC)c1ccc(NC(=O)Nc2cccc(C(C)=O)c2)cc1, the activity change (PNC), negative = inhibition is reported as inconclusive: -78.7%. With COc1cc(CNc2ccc3[nH]c(=O)[nH]c3c2)cc(Br)c1OCC(=O)NC(C)(C)C the activity change (PNC), negative = inhibition was inactive: 42.5%. With CC1=C(C(=O)Nc2ccccc2)C(c2ccco2)C(C#N)=C(SCc2ccccc2)N1 (stereo unspecified) the activity change (PNC), negative = inhibition was inconclusive: -40.9%. For COc1ccc(-c2ncc3ccccn23)cc1OC, the activity change (PNC), negative = inhibition was inconclusive: -43.7%. For CCC(=O)Nc1ccc(Cl)c(NC(=S)NC(=O)c2ccco2)c1, the activity change (PNC), negative = inhibition was inactive: -3.9%. For Nc1nnc(SCC(=O)OCc2ccc(Cl)c(Cl)c2)s1, the activity change (PNC), negative = inhibition was inconclusive: -35.5%. In the case of COc1ccc(C(N)=O)cc1N, the activity change (PNC), negative = inhibition is reported as inconclusive: -31.3%. For COc1cc2nc(SCC(N)=O)n(CCC3=CCCCC3)c(=O)c2cc1OC, the activity change (PNC), negative = inhibition was inconclusive: -54%. With N#CC1=C(SCc2ccccc2)NC(=O)C(C#N)C12CCCC2 (stereo unspecified) the activity change (PNC), negative = inhibition was inactive: 9.75%. With CCc1c(C(C)S(=O)(=O)c2ccc(C)cc2)[nH]c(=O)n1-c1ccc(C)cc1 (stereo unspecified) the activity change (PNC), negative = inhibition was inactive: -16.3%. With Cc1cc(OCC(=O)OCC(=O)Nc2cc(C(F)(F)F)ccc2N2CCOCC2)ccc1Cl the activity change (PNC), negative = inhibition was inactive: 74.6%. In the case of Cc1nc2ccccc2n1CSc1ccccc1, the activity change (PNC), negative = inhibition is reported as inconclusive: -30.5%. In the case of CC(C)COc1cccc(C(=O)NC(=S)Nc2cccc(NC(=O)c3ccccc3Cl)c2)c1, the activity change (PNC), negative = inhibition is reported as inactive: 2.75%. With C=CCOC(=O)N1CCN(c2cccc(C(F)(F)F)c2)CC1 the activity change (PNC), negative = inhibition was inconclusive: -40.6%. With CC(C)NC(=O)c1ccccc1NC(=O)C1CCCO1 (stereo unspecified) the activity change (PNC), negative = inhibition was inconclusive: -31.6%. In the case of C=CCn1c(SCCOc2ccc(OC)cc2)nnc1C(NC(=O)c1ccc(OC)cc1)C(C)C (stereo unspecified), the activity change (PNC), negative = inhibition is reported as inconclusive: -54.3%. In the case of COC(=O)NC1CCC(NC(=O)OC)CC1 (stereo unspecified), the activity change (PNC), negative = inhibition is reported as inconclusive: -60.1%. In the case of Cc1c(C(=O)N2CCCCC2)sc(N)c1C#N, the activity change (PNC), negative = inhibition is reported as inactive: -18.7%. For Cc1cc(C(F)F)nn1CC(=O)Nc1cc([N+](=O)[O-])ccc1F, the activity change (PNC), negative = inhibition was inactive: 32%. For CCCCC(=O)Nc1ccc(N2CCN(S(C)(=O)=O)CC2)cc1, the activity change (PNC), negative = inhibition was inconclusive: -50.1%. For C=C(C)CC1(NC(C)c2ccccc2)CCCCC1 (stereo unspecified), the activity change (PNC), negative = inhibition was active: -109%. With COc1ccc(/C=C(\C#N)C(=O)NCC2CCCO2)cc1OC (stereo unspecified) the activity change (PNC), negative = inhibition was inconclusive: -46.6%. For CC(C)(C)c1ccc(S(=O)(=O)CCc2ccccn2)cc1, the activity change (PNC), negative = inhibition was inconclusive: -63%. In the case of O=C1CCCC2=C1C(c1ccco1)Nc1ccc(C(=O)c3ccccc3)cc1N2 (stereo unspecified), the activity change (PNC), negative = inhibition is reported as inconclusive: -32.8%. With Cc1ccc2c(c1)cc(CN(Cc1ccc3c(c1)OCO3)C(=O)c1cnccn1)c1nnnn12 the activity change (PNC), negative = inhibition was inactive: 29.5%. With COc1ccccc1/C=C/C=N/NC(=O)CCn1nnc2ccccc21 the activity change (PNC), negative = inhibition was inactive: 9.93%. In the case of O=C(CCn1c(=O)oc2ccccc21)NCc1ccc2c(c1)OCO2, the activity change (PNC), negative = inhibition is reported as inactive: 17.7%. For CCOC(=O)c1c(-c2ccccc2)csc1/N=C/C1C(=O)CCCC1=O, the activity change (PNC), negative = inhibition was inactive: 38.1%. With O=C(CSc1nc(O)c(Cc2ccccc2F)c(=O)[nH]1)N1CCCCCC1 the activity change (PNC), negative = inhibition was inconclusive: -31.8%. With CC(C)(C)c1ccc(OCCC(=O)NC2=NCCS2)cc1 the activity change (PNC), negative = inhibition was inactive: 2.04%. For Cc1cc(S(=O)(=O)Nc2ccccc2C)ccc1F, the activity change (PNC), negative = inhibition was inconclusive: -32.5%. For Cc1nn(-c2ccccc2)c(C)c1C(=O)OCC(=O)N1CCN(S(=O)(=O)c2ccccc2)CC1, the activity change (PNC), negative = inhibition was inconclusive: -34.3%. In the case of O=C(Cc1nnc(NC(=O)Nc2ccc(Cl)cc2)s1)NCc1ccccc1, the activity change (PNC), negative = inhibition is reported as inconclusive: -46.5%. For COC(=O)CC1Oc2ccccc2N(Cc2ccc(C)cc2)C1=O (stereo unspecified), the activity change (PNC), negative = inhibition was inconclusive: -66.7%. With COc1ccc(S(=O)(=O)NC(CC(=O)NCC2CCCO2)c2ccco2)cc1 (stereo unspecified) the activity change (PNC), negative = inhibition was inconclusive: -49.7%. For CC1CCN(C(=O)c2ccc(N(C)S(C)(=O)=O)cc2)CC1, the activity change (PNC), negative = inhibition was inconclusive: -57.2%. For CN1C(=O)CSc2ccc(NC(=O)N3CCc4ccccc43)cc21, the activity change (PNC), negative = inhibition was inconclusive: -71.4%. In the case of CSCCC(NC(=O)c1ccccc1)C(=O)Nc1ccc(NC(C)=O)cc1 (stereo unspecified), the activity change (PNC), negative = inhibition is reported as inconclusive: -31.6%. In the case of O=C(NC1CC1)c1nc2c(nnn2Cc2ccccc2Cl)c(=O)[nH]1, the activity change (PNC), negative = inhibition is reported as inconclusive: -37.6%. For CCOC(=O)c1ccc(N2C(=O)CC(N(C)CCc3ccc(OC)c(OC)c3)C2=O)cc1 (stereo unspecified), the activity change (PNC), negative = inhibition was inactive: 24.4%. In the case of COc1nc(-c2ccccc2)c2c(c1C#N)CC(C)(C)OC2, the activity change (PNC), negative = inhibition is reported as inactive: 36.6%. With C=CCn1c(SC2CCOC2=O)nc2scc(C3CC3)c2c1=O (stereo unspecified) the activity change (PNC), negative = inhibition was inconclusive: -71.1%. With COc1cccc(NC(=O)CCSc2ccc(C)cc2)c1 the activity change (PNC), negative = inhibition was inactive: -22.3%. With CCCOc1ccc(S(=O)(=O)NCc2ccc(OC)cc2)cc1 the activity change (PNC), negative = inhibition was inconclusive: -43.6%. With CC(=O)c1cn(CCC(C)C)c(=O)[nH]c1=O the activity change (PNC), negative = inhibition was inconclusive: -47.3%. In the case of CN(C1CCS(=O)(=O)C1)S(=O)(=O)c1ccc(N2CCCC2=O)cc1 (stereo unspecified), the activity change (PNC), negative = inhibition is reported as inconclusive: -53.2%. For CC1(C)S/C(=N/N=C/c2ccco2)NC1=O, the activity change (PNC), negative = inhibition was inconclusive: -35.7%. For Cc1ccccc1C(=O)N[C@H](C(=O)Nc1ccc(Cl)c(Cl)c1)C(C)C, the activity change (PNC), negative = inhibition was inconclusive: -62.2%. In the case of COc1ccc(C(c2sc3nc(C)nn3c2O)N2CCC(C(N)=O)CC2)cc1OC (stereo unspecified), the activity change (PNC), negative = inhibition is reported as inconclusive: -43.4%. In the case of Cc1cc(C#N)c2ccccc2n1, the activity change (PNC), negative = inhibition is reported as inconclusive: -48.2%. In the case of O=C(NNc1nc(-c2ccccc2)cs1)c1ccco1, the activity change (PNC), negative = inhibition is reported as inconclusive: -33.7%. With CCC(CC)C(=O)NCc1ccc2c(c1)cc(C)n2C the activity change (PNC), negative = inhibition was inconclusive: -47.9%. With Clc1ccc(COc2ccccn2)cc1Cl the activity change (PNC), negative = inhibition was inactive: 6.58%. With COc1ccccc1C(=O)Nc1ccccc1C(=O)N1CCCC1 the activity change (PNC), negative = inhibition was inconclusive: -64.1%. With CCOC(=O)c1[nH]c(C)c(C(=O)OCCOc2cccc(C)c2)c1C the activity change (PNC), negative = inhibition was inconclusive: -64.4%. In the case of CC(=O)N1[C@H](C)C=C[C@]1(Cc1ccccc1)C(=O)NCc1cc(F)cc(C(F)(F)F)c1, the activity change (PNC), negative = inhibition is reported as inconclusive: -44.1%. For CC1CC(C)CN(c2ncc3c(n2)CC(c2ccccc2)CC3=O)C1 (stereo unspecified), the activity change (PNC), negative = inhibition was inconclusive: -76%. With Cn1cc(CNC(=O)COc2ccc(Cl)cc2Cl)cn1 the activity change (PNC), negative = inhibition was inconclusive: -47.9%. With Clc1nnc(N/N=C/c2ccccc2)c2ccccc12 the activity change (PNC), negative = inhibition was inconclusive: -39.6%. With Cc1ccc(-c2csc(NC(=O)/C=C/c3cccs3)n2)cc1C the activity change (PNC), negative = inhibition was inconclusive: -31.3%. In the case of O=C(/C=C/c1cccc([N+](=O)[O-])c1)Nn1c(-c2ccccc2F)nc2ccccc2c1=O, the activity change (PNC), negative = inhibition is reported as active: -118%. In the case of CCN(CC)C(=O)CSc1nnc(CCNC(=O)OC(C)(C)C)o1, the activity change (PNC), negative = inhibition is reported as inconclusive: -67%. With CCOc1cnn(Cc2ccccc2)c(=O)c1SCc1ccccc1 the activity change (PNC), negative = inhibition was inconclusive: -55.9%. For COc1ccc(C(=O)NCC(=O)NCC(=O)OCC(=O)c2cccs2)cc1, the activity change (PNC), negative = inhibition was inconclusive: -36.5%. With CC(=O)c1ccccc1Oc1nc(CN2CCOCC2)nc2scc(-c3cccs3)c12 the activity change (PNC), negative = inhibition was inactive: 4.33%. For CCCc1ccc(-c2ccc(C(=O)O)cc2)nc1, the activity change (PNC), negative = inhibition was inconclusive: -72.3%. With CCOC(=O)c1cccc(NC(=O)CCS(=O)(=O)c2ccc(Br)s2)c1 the activity change (PNC), negative = inhibition was inconclusive: -55.8%. With Cc1onc(-c2ccccc2)c1C(=O)OCC(=O)Nc1ccc2c(c1)OCO2 the activity change (PNC), negative = inhibition was inconclusive: -67.2%. For O=C(c1ccc(-c2ccc([N+](=O)[O-])cc2)o1)N1CCCCC1, the activity change (PNC), negative = inhibition was inconclusive: -58.2%. In the case of OCc1nc2ccccc2n1C/C=C/c1ccccc1, the activity change (PNC), negative = inhibition is reported as inconclusive: -54.5%. With Cc1noc(NS(=O)(=O)c2ccc(NC(=O)COc3ccc(Cl)cc3Cl)cc2)c1C the activity change (PNC), negative = inhibition was inactive: 22.9%. For CC(=O)c1ccc(OC(=O)C(CCS(C)(=O)=O)N2C(=O)c3ccccc3C2=O)cc1 (stereo unspecified), the activity change (PNC), negative = inhibition was inconclusive: -35.1%. With COC(=O)Cc1[nH]nc2c1C(C1C=CCCC1)C(C#N)=C(N)O2 (stereo unspecified) the activity change (PNC), negative = inhibition was inconclusive: -33.6%. For CCOC(=O)C1=C(C)NC(=O)C1CC(=O)Nc1ccccc1 (stereo unspecified), the activity change (PNC), negative = inhibition was inconclusive: -61%. In the case of Oc1ccc(CN2CCN(Cc3ccccc3)CC2)c2cccnc12, the activity change (PNC), negative = inhibition is reported as inconclusive: -35.1%. For COc1ccc(CNC(=O)C(c2ccco2)N(C(=O)CNS(=O)(=O)c2ccccc2)c2ccccc2C)cc1 (stereo unspecified), the activity change (PNC), negative = inhibition was inconclusive: -30.4%. With COC(=O)COc1cccc(NS(=O)(=O)c2ccc(NC(C)=O)cc2)c1 the activity change (PNC), negative = inhibition was active: -87.9%. In the case of O=C(CCSCc1cccc(Cl)c1)NCCC1=CCCCC1, the activity change (PNC), negative = inhibition is reported as inactive: -1.81%. In the case of Cc1cc(=O)[nH]c(SCc2nc3ccccc3n2Cc2ccccc2)n1, the activity change (PNC), negative = inhibition is reported as inconclusive: -48.9%. With Clc1ccc2c(c1)c1ccccc1n2CN1CCOCC1 the activity change (PNC), negative = inhibition was inconclusive: -56.5%. In the case of CCCc1cc(=O)[nH]c(SCC(=O)NCCCC(=O)OCC)n1, the activity change (PNC), negative = inhibition is reported as inconclusive: -47.5%. In the case of CCc1ccc(N=CC23c4ccccc4C(c4ccccc42)C2C(=O)N(c4ccc(OC)cc4)C(=O)C23)cc1 (stereo unspecified), the activity change (PNC), negative = inhibition is reported as inconclusive: -51.6%. For CC(C)OC(=O)CSc1nnc(-c2ccc(C(C)(C)C)cc2)n1N, the activity change (PNC), negative = inhibition was inactive: 33.9%. For Cc1ccc(N2CC(C(=O)N/N=C/c3cccc([N+](=O)[O-])c3)CC2=O)cc1 (stereo unspecified), the activity change (PNC), negative = inhibition was active: -82.9%. In the case of CCOc1ccccc1OCCCC(=O)N1CCN(S(=O)(=O)c2cccc(F)c2)CC1, the activity change (PNC), negative = inhibition is reported as inconclusive: -51.1%. In the case of COc1ccc(CCc2nc(C)ccc2O)cc1, the activity change (PNC), negative = inhibition is reported as inactive: 23% and inconclusive: -33.7%. With N#C/C(=C/c1ccc(N2CCCCC2)o1)C(=O)Nc1ccc(Cl)cc1 the activity change (PNC), negative = inhibition was active: -123%.
